# Experimental data: PubChem BioAssay AID1508597 (Cure First, 2020)
# Purpose: 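Genes whose silencing sensitises or protects ovarian cancer cells against rucaparib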 (primary screen)
# System: human ovarian carcinoma lines grown from tumours: OCI-P5x (papillary serous) and OCI-C5x (clear cell)
# Reagent: siRNA pool against human genes, 1.25 pmol siRNA per well
# Timing: 72 h or 96 h, depending on the cell culture
# Treatment: rucaparib 20 µM (about IC30) or vehicle, present until read-out
# Rucaparib or vehicle: Vehicle
# Cell line: OCI-P5x (serous)
# Detection: 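Luminescent ATP-based viability assay read 72 or 96 h after transfection, depending on culture, given as normalised percent viability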
# Direction: viability, normalised: higher = more viable cells remaining
# Rule for the call: 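a well counts as a hit if its normalised viability is under 80 percent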
# Calls: active = viability under 80%; inactive = viability 80% or more
# This is an unselected part of the about 2,100 reagents, in one setting of the screen. 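Calls flag viability under 80% in either arm, not effects specific to rucaparib; the reference for percent is not stated.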 A number with no mark means an inactive call. Some reagents were tested in more than one well and are listed for each. The record does not give: the 100% reference.
gene,technical replicate,"viability, normalised (%)"
PARP11,1,43.6 (active)
PARP11,2,65.4 (active)
PARP11,3,70.2 (active)
TAF1,1,80.1
TAF1,1,77.7 (active)
TAF1,2,86.1
TAF1,2,71.2 (active)
TAF1,3,95.1
TAF1,3,51.4 (active)
BOK,1,70.7 (active)
BOK,2,83.5
BOK,3,82.9
HK1,1,81.5
HK1,2,83.3
HK1,3,60.3 (active)

Look-ups from the list:
Value of HK1, technical replicate 3 under “viability, normalised (%)”: 60.3 (active)
Under “viability, normalised (%)”, HK1, technical replicate 2 has 83.3
PARP11, technical replicate 2, viability, normalised (%) → 65.4 (active)
For “viability, normalised (%)”, PARP11, technical replicate 3 has 70.2 (active)
For “viability, normalised (%)”, PARP11, technical replicate 1 has 43.6 (active)
Entry of BOK, technical replicate 2 under “viability, normalised (%)”: 83.5

Next records follow:
gene,technical replicate,"viability, normalised (%)"
UCK2,1,53.2 (active)
UCK2,2,68.2 (active)
UCK2,3,52.1 (active)
OGG1,1,92
OGG1,2,89.1
OGG1,3,87.4
DNAJC2,1,59.2 (active)
DNAJC2,2,58.8 (active)
DNAJC2,3,60.9 (active)
YBX1,1,70.2 (active)
YBX1,2,66.8 (active)
YBX1,3,66.9 (active)
CDC7,1,102
CDC7,2,89.8
CDC7,3,108
PIAS1,1,35.9 (active)
PIAS1,2,39 (active)
PIAS1,3,63.9 (active)
COPS3,1,60.6 (active)
COPS3,2,73.7 (active)
COPS3,3,67.3 (active)
AK9,1,61.2 (active)
AK9,2,54.4 (active)
AK9,3,55.6 (active)
